Laboratory results reported in the supplement of paper PMC10849652.
Some of the results follow.

Sequences of proteins named here, by UniProt entry; tags and fusion partners are left off. A change or cut given only in a name is not applied to a line headed by its entry.
UniProt Q9NYL9: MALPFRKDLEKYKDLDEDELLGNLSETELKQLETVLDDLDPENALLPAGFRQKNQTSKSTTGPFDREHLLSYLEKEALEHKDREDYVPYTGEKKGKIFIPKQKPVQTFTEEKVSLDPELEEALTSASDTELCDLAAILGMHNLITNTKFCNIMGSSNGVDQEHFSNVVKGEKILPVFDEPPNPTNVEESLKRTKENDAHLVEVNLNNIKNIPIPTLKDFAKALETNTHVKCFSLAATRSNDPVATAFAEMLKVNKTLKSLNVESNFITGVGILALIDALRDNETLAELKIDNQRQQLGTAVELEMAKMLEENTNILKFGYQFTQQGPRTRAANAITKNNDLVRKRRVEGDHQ
UniProt Q5JTV8: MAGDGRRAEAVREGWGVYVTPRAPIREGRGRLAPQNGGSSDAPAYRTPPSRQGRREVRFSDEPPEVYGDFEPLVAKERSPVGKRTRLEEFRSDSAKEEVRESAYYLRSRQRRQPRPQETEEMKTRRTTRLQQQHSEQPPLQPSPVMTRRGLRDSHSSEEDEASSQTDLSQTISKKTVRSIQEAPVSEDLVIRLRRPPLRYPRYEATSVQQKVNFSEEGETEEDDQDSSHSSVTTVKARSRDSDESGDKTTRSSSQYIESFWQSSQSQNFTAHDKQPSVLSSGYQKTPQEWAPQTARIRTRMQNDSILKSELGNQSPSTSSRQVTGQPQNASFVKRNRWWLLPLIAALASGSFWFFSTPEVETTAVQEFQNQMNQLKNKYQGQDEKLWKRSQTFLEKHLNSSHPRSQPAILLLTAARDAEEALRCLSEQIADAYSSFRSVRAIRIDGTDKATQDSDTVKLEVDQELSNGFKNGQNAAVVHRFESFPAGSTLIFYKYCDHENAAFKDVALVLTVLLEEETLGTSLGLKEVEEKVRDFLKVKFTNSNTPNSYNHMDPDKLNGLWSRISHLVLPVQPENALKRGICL
UniProt Q92973: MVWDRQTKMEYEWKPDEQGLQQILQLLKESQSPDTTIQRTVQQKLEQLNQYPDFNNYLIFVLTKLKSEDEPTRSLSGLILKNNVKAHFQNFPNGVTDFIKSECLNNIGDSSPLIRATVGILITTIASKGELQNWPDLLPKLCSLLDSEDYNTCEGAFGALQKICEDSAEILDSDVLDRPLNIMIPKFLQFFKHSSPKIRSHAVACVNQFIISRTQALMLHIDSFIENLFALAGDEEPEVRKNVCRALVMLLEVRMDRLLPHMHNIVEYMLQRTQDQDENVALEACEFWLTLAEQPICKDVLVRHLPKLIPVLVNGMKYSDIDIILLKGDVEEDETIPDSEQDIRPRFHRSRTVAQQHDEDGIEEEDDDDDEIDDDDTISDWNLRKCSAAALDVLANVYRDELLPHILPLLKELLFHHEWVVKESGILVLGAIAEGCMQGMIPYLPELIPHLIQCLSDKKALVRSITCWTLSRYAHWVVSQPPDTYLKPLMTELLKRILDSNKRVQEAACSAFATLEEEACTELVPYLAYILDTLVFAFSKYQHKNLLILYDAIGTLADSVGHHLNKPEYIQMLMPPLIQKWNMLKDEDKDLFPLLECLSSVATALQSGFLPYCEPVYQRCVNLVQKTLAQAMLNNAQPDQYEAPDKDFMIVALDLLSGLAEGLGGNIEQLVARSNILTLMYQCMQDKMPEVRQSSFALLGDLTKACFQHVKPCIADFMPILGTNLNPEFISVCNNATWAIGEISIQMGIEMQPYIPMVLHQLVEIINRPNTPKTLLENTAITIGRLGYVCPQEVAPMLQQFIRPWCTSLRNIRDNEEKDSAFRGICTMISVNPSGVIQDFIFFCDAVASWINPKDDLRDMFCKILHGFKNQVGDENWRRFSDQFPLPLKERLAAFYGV
UniProt Q8NFQ8: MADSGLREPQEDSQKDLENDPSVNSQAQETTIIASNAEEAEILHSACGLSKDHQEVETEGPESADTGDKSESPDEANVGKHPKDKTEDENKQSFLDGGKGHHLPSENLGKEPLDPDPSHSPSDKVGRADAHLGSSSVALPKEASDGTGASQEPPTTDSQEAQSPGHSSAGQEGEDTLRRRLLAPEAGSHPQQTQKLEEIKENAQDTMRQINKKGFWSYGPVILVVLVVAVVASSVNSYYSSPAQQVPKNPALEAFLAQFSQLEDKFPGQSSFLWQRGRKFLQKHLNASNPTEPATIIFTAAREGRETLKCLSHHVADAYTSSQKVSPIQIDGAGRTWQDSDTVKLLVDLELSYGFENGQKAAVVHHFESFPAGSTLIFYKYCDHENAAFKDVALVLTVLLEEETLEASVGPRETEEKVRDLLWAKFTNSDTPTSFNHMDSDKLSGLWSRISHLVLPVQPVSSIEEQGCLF
UniProt P09493, whole entry, looked up: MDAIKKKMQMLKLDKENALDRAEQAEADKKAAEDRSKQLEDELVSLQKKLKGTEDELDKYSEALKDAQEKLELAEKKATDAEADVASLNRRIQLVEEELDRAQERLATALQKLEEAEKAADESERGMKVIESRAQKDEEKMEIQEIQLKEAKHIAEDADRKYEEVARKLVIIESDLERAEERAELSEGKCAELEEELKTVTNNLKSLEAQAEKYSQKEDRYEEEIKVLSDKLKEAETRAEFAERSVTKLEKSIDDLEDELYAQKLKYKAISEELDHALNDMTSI
UniProt Q6ZXV5: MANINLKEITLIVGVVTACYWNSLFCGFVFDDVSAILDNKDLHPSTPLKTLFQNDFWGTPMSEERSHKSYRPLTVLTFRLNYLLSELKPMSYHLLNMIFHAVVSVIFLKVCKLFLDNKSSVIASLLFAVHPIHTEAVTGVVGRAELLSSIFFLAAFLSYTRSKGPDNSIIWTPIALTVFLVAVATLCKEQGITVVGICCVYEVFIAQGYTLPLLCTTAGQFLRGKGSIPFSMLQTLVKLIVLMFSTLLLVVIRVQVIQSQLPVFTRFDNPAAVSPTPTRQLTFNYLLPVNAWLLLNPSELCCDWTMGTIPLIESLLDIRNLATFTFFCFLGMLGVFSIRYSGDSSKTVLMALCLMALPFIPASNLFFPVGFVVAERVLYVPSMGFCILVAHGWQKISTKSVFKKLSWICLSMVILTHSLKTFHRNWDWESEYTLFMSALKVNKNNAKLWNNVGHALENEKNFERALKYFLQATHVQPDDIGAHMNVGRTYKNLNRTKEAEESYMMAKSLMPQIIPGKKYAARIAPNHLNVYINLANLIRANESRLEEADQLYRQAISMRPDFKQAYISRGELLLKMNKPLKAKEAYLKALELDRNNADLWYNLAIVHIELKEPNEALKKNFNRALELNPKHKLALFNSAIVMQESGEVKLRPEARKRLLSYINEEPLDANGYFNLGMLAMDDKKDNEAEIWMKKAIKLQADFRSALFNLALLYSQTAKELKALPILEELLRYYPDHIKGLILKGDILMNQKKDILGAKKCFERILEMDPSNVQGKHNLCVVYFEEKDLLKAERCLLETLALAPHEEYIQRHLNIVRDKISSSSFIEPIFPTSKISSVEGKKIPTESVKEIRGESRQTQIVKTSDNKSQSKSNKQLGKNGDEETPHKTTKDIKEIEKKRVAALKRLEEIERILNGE
UniProt P11387: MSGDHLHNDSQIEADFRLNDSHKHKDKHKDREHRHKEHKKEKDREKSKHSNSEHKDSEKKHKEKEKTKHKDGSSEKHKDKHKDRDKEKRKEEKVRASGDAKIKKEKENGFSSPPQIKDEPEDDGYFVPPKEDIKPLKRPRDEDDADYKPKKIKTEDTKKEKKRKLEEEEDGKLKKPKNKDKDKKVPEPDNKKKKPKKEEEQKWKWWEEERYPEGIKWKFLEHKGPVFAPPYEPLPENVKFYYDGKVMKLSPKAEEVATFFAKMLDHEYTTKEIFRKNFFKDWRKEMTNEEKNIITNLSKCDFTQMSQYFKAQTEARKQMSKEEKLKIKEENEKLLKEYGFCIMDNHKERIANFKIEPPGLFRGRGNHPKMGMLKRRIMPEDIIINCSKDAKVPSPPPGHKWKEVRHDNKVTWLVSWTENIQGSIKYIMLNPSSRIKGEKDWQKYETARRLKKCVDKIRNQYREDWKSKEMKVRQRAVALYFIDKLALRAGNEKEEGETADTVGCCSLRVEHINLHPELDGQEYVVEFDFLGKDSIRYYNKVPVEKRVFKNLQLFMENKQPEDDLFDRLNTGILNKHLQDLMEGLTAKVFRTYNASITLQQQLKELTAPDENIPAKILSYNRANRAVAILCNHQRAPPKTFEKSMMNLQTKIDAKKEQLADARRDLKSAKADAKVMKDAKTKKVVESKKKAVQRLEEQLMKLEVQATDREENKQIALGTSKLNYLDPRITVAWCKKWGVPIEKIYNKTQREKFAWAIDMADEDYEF
UniProt O94842: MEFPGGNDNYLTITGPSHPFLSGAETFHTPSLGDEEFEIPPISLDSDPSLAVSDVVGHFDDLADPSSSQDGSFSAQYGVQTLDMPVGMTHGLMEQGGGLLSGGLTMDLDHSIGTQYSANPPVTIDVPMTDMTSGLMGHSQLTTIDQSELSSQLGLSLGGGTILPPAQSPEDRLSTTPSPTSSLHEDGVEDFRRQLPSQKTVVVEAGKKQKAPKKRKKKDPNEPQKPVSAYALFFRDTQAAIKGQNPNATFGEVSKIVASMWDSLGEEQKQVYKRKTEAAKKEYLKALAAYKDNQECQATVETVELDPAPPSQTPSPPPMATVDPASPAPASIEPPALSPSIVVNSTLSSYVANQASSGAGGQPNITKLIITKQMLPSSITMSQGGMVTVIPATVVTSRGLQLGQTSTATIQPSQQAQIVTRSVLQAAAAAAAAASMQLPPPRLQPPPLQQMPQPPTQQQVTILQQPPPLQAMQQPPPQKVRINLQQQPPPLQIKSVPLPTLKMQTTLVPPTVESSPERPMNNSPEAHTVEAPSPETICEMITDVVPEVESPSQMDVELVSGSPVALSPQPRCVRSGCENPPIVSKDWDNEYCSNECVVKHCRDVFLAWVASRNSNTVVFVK
UniProt P28908: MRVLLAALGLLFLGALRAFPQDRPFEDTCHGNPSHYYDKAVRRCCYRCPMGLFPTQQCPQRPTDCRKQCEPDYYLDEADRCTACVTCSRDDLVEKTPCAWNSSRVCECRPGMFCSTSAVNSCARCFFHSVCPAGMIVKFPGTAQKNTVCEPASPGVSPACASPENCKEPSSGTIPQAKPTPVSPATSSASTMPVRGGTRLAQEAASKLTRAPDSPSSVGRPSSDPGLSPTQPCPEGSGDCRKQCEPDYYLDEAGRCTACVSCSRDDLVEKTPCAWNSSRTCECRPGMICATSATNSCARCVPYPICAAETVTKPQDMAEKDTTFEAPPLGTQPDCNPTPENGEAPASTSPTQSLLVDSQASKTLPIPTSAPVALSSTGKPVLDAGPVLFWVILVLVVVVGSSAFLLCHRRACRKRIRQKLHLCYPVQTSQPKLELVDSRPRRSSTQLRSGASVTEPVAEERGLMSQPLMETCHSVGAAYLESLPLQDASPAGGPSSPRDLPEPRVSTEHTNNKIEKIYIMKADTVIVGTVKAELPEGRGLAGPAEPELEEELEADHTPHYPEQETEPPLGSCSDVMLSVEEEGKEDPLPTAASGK
UniProt O94886: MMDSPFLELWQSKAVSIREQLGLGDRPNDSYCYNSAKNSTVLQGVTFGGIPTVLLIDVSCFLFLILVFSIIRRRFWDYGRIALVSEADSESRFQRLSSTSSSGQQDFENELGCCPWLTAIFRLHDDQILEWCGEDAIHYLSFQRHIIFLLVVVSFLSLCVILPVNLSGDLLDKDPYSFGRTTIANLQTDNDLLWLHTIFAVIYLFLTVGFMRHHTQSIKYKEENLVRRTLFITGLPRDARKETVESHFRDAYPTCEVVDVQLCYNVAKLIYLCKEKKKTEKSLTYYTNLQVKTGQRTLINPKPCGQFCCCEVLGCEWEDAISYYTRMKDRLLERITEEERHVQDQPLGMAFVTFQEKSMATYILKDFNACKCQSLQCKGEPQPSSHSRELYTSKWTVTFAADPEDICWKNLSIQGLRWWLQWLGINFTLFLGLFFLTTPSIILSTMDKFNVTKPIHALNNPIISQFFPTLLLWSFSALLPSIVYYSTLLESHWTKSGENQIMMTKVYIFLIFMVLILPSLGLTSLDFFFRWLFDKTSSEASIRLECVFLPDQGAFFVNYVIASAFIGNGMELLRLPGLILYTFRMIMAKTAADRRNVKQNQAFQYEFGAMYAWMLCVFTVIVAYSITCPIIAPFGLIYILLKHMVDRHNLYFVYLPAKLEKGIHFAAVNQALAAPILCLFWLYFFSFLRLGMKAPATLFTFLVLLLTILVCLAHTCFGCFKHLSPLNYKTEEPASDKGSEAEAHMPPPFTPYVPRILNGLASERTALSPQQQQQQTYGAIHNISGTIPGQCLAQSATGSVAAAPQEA
UniProt Q8N511: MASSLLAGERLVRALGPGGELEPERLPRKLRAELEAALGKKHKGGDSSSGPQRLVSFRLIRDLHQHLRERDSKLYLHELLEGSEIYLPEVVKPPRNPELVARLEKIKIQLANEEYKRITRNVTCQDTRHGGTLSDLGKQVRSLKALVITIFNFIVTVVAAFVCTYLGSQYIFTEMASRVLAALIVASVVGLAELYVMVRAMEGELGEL

Each target was assayed with CC(=O)c1cnc2ccc(-c3cc(Cl)c(O)c(Cl)c3)nc2c1N[C@H]1CC[C@H](CN(C)C)CC1 (assay: log2 fold change, soluble protein after heating vs DMSO (PISA); higher = thermal stabilisation; K562 lysate, 10 uM; active = over 0.2 and 3.5 SD of the protein, either way, in both replicates (recomputed)).
Procedure, shortened: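 The values are log-two fold changes in thermal stability compared with solvent controls and come from duplicates. They were obtained by TMTpro 16plex LC-MS/MS, with channel sums equalised, on the supernatant after 21,000xg for 90 min. That supernatant came from crude K562 extract at 1 mg/mL protein treated with 10 μM compound for 30 min, heated for 3 min across 48°C-58°C, pooled and brought to 0.5% NP-40 at 4°C.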

Row | Target | log2 fold change
1 | TPI1 (UniProt P60174) | inactive: -0.001
2 | TMOD3 (UniProt Q9NYL9) | inactive: -0.004
3 | TOR1AIP1 isoform 3 (UniProt Q5JTV8) | inactive: 0.019
4 | TNPO1 (UniProt Q92973) | inactive: 0.012
5 | TPP2 (UniProt P29144) | inactive: -0.016
6 | TOR1AIP2 (UniProt Q8NFQ8) | inactive: 0.046
7 | TP53BP1 isoform 2 (UniProt Q12888) | inactive: -0.017
8 | TP53BP2 isoform 3 (UniProt Q13625) | inactive: -0.045
9 | TMEM245 (UniProt Q9H330) | inactive: 0.016
10 | TPM1 isoform 4 (UniProt P09493) | inactive: 0.009
11 | TPM4 (UniProt P67936) | inactive: -0.021
12 | TMTC3 (UniProt Q6ZXV5) | inactive: 0.015
13 | TOP2B isoform 2 (UniProt Q02880) | inactive: -0.006
14 | TOP1 (UniProt P11387) | inactive: 0.004
15 | TOX4 (UniProt O94842) | inactive: 0.054
16 | TNFRSF8 (UniProt P28908) | inactive: 0.067
17 | TMEM63A (UniProt O94886) | inactive: 0.035
18 | TPP2 (UniProt Q5VZU9) | inactive: -0.025
19 | TMEM199 (UniProt Q8N511) | inactive: 0.001
20 | TPD52L2 isoform 7 (UniProt O43399) | inactive: 0.017
21 | TOP2A isoform 4 (UniProt P11388) | inactive: -0.01
22 | TOP3A (UniProt Q13472) | inactive: -0.194

Shown comma-delimited: entries from further up.
Row,Target,log2 fold change
9,TMEM245 (UniProt Q9H330),inactive: 0.016
10,TPM1 isoform 4 (UniProt P09493),inactive: 0.009
11,TPM4 (UniProt P67936),inactive: -0.021
12,TMTC3 (UniProt Q6ZXV5),inactive: 0.015
